At least one peptide structure holds a part that was inferred or is arguable (an end, a ring closure or a residue). *1 amine or outer side, *2 acyl side, *3 side chain or, on linkers, in order; H or OH if unused. Where a SMILES comes first, the peptide text is derived from it. [ ]: non-standard residue; d: D form. The star is where a group is joined. Doxorubicin(3'-N) = COc1cccc2c1C(=O)c1c(O)c3c(c(O)c1C2=O)C[C@@](O)(C(=O)CO)C[C@@H]3O[C@H]1C[C@H](N*)[C@H](O)[C@H](C)O1; PABC = O=C(OCc1ccc(N[*:1])cc1)[*:2]
Test system: MDA-MB-231 xenograft
Assay: MDA-MB-231 xenograft tumor growth, daily oral dosing with or without single-dose radiotherapy
Assay type: in vivo, female athymic BALB/c nude mouse
Conditions: oral administration with radiotherapy

COc1cccc2c1C(=O)c1c(O)c3c(c(O)c1C2=O)C[C@@](O)(C(=O)CO)C[C@@H]3O[C@H]1C[C@H](NC(=O)OCc2ccc(NC(=O)[C@H](CC(=O)O)NC(=O)[C@@H](NC(=O)[C@H](CCC(=O)O)NC(=O)[C@H](CC(=O)O)NC(=O)CNC(=O)[C@H](CCCCN)NC(C)=O)C(C)C)cc2)[C@H](O)[C@H](C)O1 [DEVD-S-DOX, Ac-KGDEVD-PABC-Doxorubicin] (Ac-KGDEVD[PABC]-{Doxorubicin(3'-N)})
tumor growth suppression: ineffective

From patent publication US20200022997A1, “ORAL ANTICANCER PRODRUGS, THEIR PREPARATION METHODS AND APPLICATIONS” (Seoul National university R&DB Foundation, priority 2018, published 2020)
